According to patent US5668295A, “Protein involved in nicotine synthesis, DNA encoding, and use of sense and antisense DNAs corresponding thereto to affect nicotine content in transgenic tobacco cells and plants” (Philip Morris Incorporated, priority 1995, dated 1997):
For at least one compound, name, drawing or mass did not settle the structure.

Test system: putrescine N-methyltransferase ("PMT") / subject tobacco protein
Assay: Apparent Km determination in the apparent PMT activity assay
Format: biochemical, Nicotiana tabacum L. var. Burley 21
Details: highly purified tobacco protein; putrescine in excess; read-out: apparent Km for S-adenosylmethionine
Description: The reaction was started by addition of the enzyme sample, and it was carried out at 30° C. for 30 minutes. The reaction was stopped by addition of 0.5 ml of 10% (w/v) NaOH saturated with NaCl.
The radioactive product, N-[^14 C-methyl]putrescine, was separated from the substrate by solvent extraction into chloroform. After vortexing the stopped reaction mixture with 1 ml of chloroform for 90 seconds, the organic and aqueous phases were separated by centrifugation at 1600×gav for 5 minutes. A 0.5 ml aliquot of the organic phase was then assayed. The 0.5 ml aliquot of the organic phase was added to 9.5 ml of liquid scintillation cocktail (Beckman Instruments, Columbia, Md.) and radioactivity was measured by standard procedures with a liquid scintillation counter.
One unit of apparent PMT activity is defined as one nanomole of product formed per 30 min., at 30° C.
Negative controls were included with all PMT assays. Negative controls consisted of reaction mixtures minus enzyme, or reaction stopped with NaOH at time zero.

## C[S+](CC[C@H](N)C(=O)[O-])C[C@H]1O[C@@H](n2cnc3c(N)ncnc32)[C@H](O)[C@@H]1O (stereo partly shown) [S-adenosylmethionine]
  Km: ~125 µM
